Results: the supplement of paper PMC12889115
This is one part of the list. Values are raw readings; no control value is given beside them.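 In the initial screen, polymyxin B was used at a concentration that permeabilizes Salmonella's outer membrane but not its inner membrane. Maximum growth was set by DMSO wells with or without polymyxin B. Since plates varied, data were ranked per plate, and compounds giving the lowest OD600 advanced as hits.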

Tested on: Salmonella enterica serovar Typhimurium SL1344
Test: bacterial growth OD600 after 18 h with compound and polymyxin B; higher = more bacterial growth (less inhibition)
Details: 50 µM, Mueller-Hinton broth

Structure (SMILES): COCCCN1C(=O)CC(CC(=O)N(C)Cc2ccco2)(c2ccccc2Cl)C1=O (configuration not stated)
- bacterial growth OD600 (polymyxin B 0.75 µg/mL): 0.705

Structure (SMILES): CC(C)CC(=O)NC1CCCc2nc(-c3ccccc3)ncc21 (configuration not stated)
- bacterial growth OD600 (polymyxin B 1 µg/mL): 0.87

Structure (SMILES): COc1cc(CN2CCN(Cc3c(OC)ccc4ccccc34)CC2CCO)cc(OC)c1 (configuration not stated)
- bacterial growth OD600 (polymyxin B 1 µg/mL): 0.798

Structure (SMILES): COc1ccc(Cc2noc(-c3ccc(NCCc4cnccn4)nc3)n2)cc1
- bacterial growth OD600 (polymyxin B 1 µg/mL): 0.85

Structure (SMILES): CCC(NC(=O)CCc1nnc(-c2ccc3c(c2)OCO3)o1)c1ccc(F)cc1 (configuration not stated)
- bacterial growth OD600 (polymyxin B 0.75 µg/mL): 0.813

Structure (SMILES): CCOC(=O)C1(Cc2ccccc2)CCN(Cc2cc(OC)c3c(c2)OCO3)CC1
- bacterial growth OD600 (polymyxin B 0.75 µg/mL): 0.876

Structure (SMILES): O=S(=O)(Cc1ccccc1)NCC1CCCN(Cc2nc3ccccc3s2)C1 (configuration not stated)
- bacterial growth OD600 (polymyxin B 1 µg/mL): 0.887

Structure (SMILES): COC(=O)CNC(=O)CC(c1ccccc1)c1ccccc1Cl (configuration not stated)
- bacterial growth OD600 (polymyxin B 1 µg/mL): 0.805

Structure (SMILES): Cc1cnc(SCc2ccccn2)nc1C1CCCN(C(=O)/C=C/c2ccc(F)cc2)C1 (configuration not stated)
- bacterial growth OD600 (polymyxin B 0.75 µg/mL): 0.68

Structure (SMILES): O=C(CCN1Cc2ccccc2OC(c2ccccc2)C1)NCC1CCCN(c2ncccn2)C1 (configuration not stated)
- bacterial growth OD600 (polymyxin B 0.75 µg/mL): 0.012

Structure (SMILES): OC1(Cc2cc(-c3ccccc3)no2)CCN(Cc2ccc3c(c2)OCCO3)CC1
- bacterial growth OD600 (polymyxin B 1 µg/mL): 0.892

Structure (SMILES): CCO[C@H]1[C@H](NC(=O)c2cccnc2)c2ccccc2C12CCN(C(=O)c1ccccc1)CC2
- bacterial growth OD600 (polymyxin B 0.75 µg/mL): 0.765

Structure (SMILES): CCC(O)C1CCN(C(=O)CN2Cc3ccccc3OC(c3ccccc3F)C2)CC1 (configuration not stated)
- bacterial growth OD600 (polymyxin B 0.75 µg/mL): 0.539

Structure (SMILES): O=C(CC(c1ccccc1)c1ccc(Cl)cc1)NCCN1CCOC1=O (configuration not stated)
- bacterial growth OD600 (polymyxin B 1 µg/mL): 0.913

Structure (SMILES): O=C1CCCN1CC(=O)N1CCOC(CCCc2ccccc2)C1 (configuration not stated)
- bacterial growth OD600 (polymyxin B 0.75 µg/mL): 0.859

Structure (SMILES): COc1cccc(OCC(O)CNC2CCN(c3ccc(NC(=O)C4CCCC4)cc3)CC2)c1 (configuration not stated)
- bacterial growth OD600 (polymyxin B 0.75 µg/mL): 0.801

Structure (SMILES): CCc1csc(CNC(=O)c2ccc(NC)nc2)n1
- bacterial growth OD600 (polymyxin B 1 µg/mL): 0.877

Structure (SMILES): CC(=O)N1CCC(Oc2ccc(C(=O)NC3CCCC3)cc2Cl)CC1
- bacterial growth OD600 (polymyxin B 1 µg/mL): 1.15

Structure (SMILES): CCN(CC)CCNC(=O)c1ccc(OC2CCN(C(=O)C3CC3)CC2)cc1
- bacterial growth OD600 (polymyxin B 1 µg/mL): 0.832

Structure (SMILES): COC(=O)Cn1cc(CN2CC[C@@H](N3CCOCC3)[C@H](O)C2)c2ccccc21
- bacterial growth OD600 (polymyxin B 0.75 µg/mL): 0.925

Structure (SMILES): COc1ccnc(N2CCC(C3CCN(Cc4cccnc4)CC3)C2)n1 (configuration not stated)
- bacterial growth OD600 (polymyxin B 0.75 µg/mL): 0.82

Structure (SMILES): O=C(CCOc1ccccc1)Nc1ccnn1C1CCN(C2CCCC2)CC1
- bacterial growth OD600 (polymyxin B 0.75 µg/mL): 0.824

Structure (SMILES): CCC(COC)NC(=O)c1ccc2oc(Cc3ccc(Cl)cc3)nc2c1 (configuration not stated)
- bacterial growth OD600 (polymyxin B 1 µg/mL): 1.05

Structure (SMILES): O=C(CC(c1ccccc1)c1ccccc1Cl)NCCN1CCOC1=O (configuration not stated)
- bacterial growth OD600 (polymyxin B 1 µg/mL): 0.939

Structure (SMILES): O=C(c1cccnc1)C1CCCN(Cc2nc(-c3ccc4c(c3)OCO4)no2)C1 (configuration not stated)
- bacterial growth OD600 (polymyxin B 1 µg/mL): 0.901

Structure (SMILES): O=C(NCCN1CCOCC1)C1CCC(=O)N(CCCc2ccccc2)C1 (configuration not stated)
- bacterial growth OD600 (polymyxin B 1 µg/mL): 1.03

Structure (SMILES): O=C(CC(c1cccc(O)c1)c1cccc(Cl)c1)NCc1n[nH]c2c1CCC2 (configuration not stated)
- bacterial growth OD600 (polymyxin B 1 µg/mL): 0.504

Structure (SMILES): c1ccc(CCC2CCCN(Cc3cccnc3)C2)cc1 (configuration not stated)
- bacterial growth OD600 (polymyxin B 0.75 µg/mL): 0.822

Structure (SMILES): COc1ccc(OC2CCN(C(C)=O)CC2)c(C(=O)NCCc2ccccc2OC)c1
- bacterial growth OD600 (polymyxin B 1 µg/mL): 1.13

Structure (SMILES): O=C(NCCc1ccccc1)N1C[C@H]2OC(=O)N(Cc3ccccn3)[C@H]2C1
- bacterial growth OD600 (polymyxin B 0.75 µg/mL): 0.97

Structure (SMILES): COCCN(CC1CCN(Cc2ccccc2OC)CC1)C(=O)CN1CCCCC1
- bacterial growth OD600 (polymyxin B 1 µg/mL): 0.974

Structure (SMILES): COc1ccc(-c2noc(CN(C)Cc3cnn(-c4cccc(OC)c4)c3)n2)cc1
- bacterial growth OD600 (polymyxin B 1 µg/mL): 0.857
